Data as given in PubChem BioAssay AID1224830 (NIAID, 2016).

Purpose: 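Genes whose knock-down alters the TNF-alpha reporter response to LPS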 (primary screen)
System: human THP-1 monocytic leukaemia cells, TNF dual-luciferase reporter clone, PMA-differentiated to macrophage-like cells
Reagent: siRNA pool against human genes, 50 nM
Time to read-out: LPS for 4 h, given about 3 days after siRNA transfection
Conditions: bacterial LPS (TLR4 ligand), 10 ng/ml
Measured: 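Ratio of firefly to renilla light, scaled to the plate median and expressed as a robust z-score per replicate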
Direction: TNF reporter robust z-score: higher = stronger TNF reporter response to LPS
Active means: 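Each well counts as active if its z-score is over 2.8 or under -1.5; controls are left without a call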
Shown is one part, drawn at random, of about 18,000 reagents tested. Over the whole deposit, about 2,900 (16%) got an active call. 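Calls are made per well; low scores hint the gene aids the LPS response, high scores that it dampens it.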 Entries without a mark were called inactive. Repeated entries: four replicate wells of each siRNA pool.

{"Target gene": "GGA2", "TNF reporter robust z-score": 0.58}
{"Target gene": "GGA2", "TNF reporter robust z-score": 1.62}
{"Target gene": "GGA2", "TNF reporter robust z-score": 0.28}
{"Target gene": "GGA2", "TNF reporter robust z-score": 1.9}
{"Target gene": "MIPOL1 (mirror-image polydactyly 1)", "TNF reporter robust z-score": -0.73}
{"Target gene": "MIPOL1 (mirror-image polydactyly 1)", "TNF reporter robust z-score": -0.49}
{"Target gene": "MIPOL1 (mirror-image polydactyly 1)", "TNF reporter robust z-score": -0.32}
{"Target gene": "MIPOL1 (mirror-image polydactyly 1)", "TNF reporter robust z-score": 0.94}
{"Target gene": "PDE6H (phosphodiesterase 6H)", "TNF reporter robust z-score": -1.36}
{"Target gene": "PDE6H (phosphodiesterase 6H)", "TNF reporter robust z-score": -1.4}
{"Target gene": "PDE6H (phosphodiesterase 6H)", "TNF reporter robust z-score": -1.12}
{"Target gene": "PDE6H (phosphodiesterase 6H)", "TNF reporter robust z-score": "-1.51 (active)"}
{"Target gene": "HDAC3 (histone deacetylase 3)", "TNF reporter robust z-score": -0.46}
{"Target gene": "HDAC3 (histone deacetylase 3)", "TNF reporter robust z-score": 0.18}
{"Target gene": "HDAC3 (histone deacetylase 3)", "TNF reporter robust z-score": -0.55}
{"Target gene": "BMPER (BMP binding endothelial regulator)", "TNF reporter robust z-score": 0.51}
{"Target gene": "BMPER (BMP binding endothelial regulator)", "TNF reporter robust z-score": 0.77}
{"Target gene": "BMPER (BMP binding endothelial regulator)", "TNF reporter robust z-score": 1.02}
{"Target gene": "BMPER (BMP binding endothelial regulator)", "TNF reporter robust z-score": 1.77}
{"Target gene": "ZNF135 (zinc finger protein 135)", "TNF reporter robust z-score": -1.09}
{"Target gene": "ZNF135 (zinc finger protein 135)", "TNF reporter robust z-score": -0.94}
{"Target gene": "ZNF135 (zinc finger protein 135)", "TNF reporter robust z-score": -0.22}
{"Target gene": "ZNF135 (zinc finger protein 135)", "TNF reporter robust z-score": -0.05}
{"Target gene": "DLL4 (delta like canonical Notch ligand 4)", "TNF reporter robust z-score": 0.15}
{"Target gene": "DLL4 (delta like canonical Notch ligand 4)", "TNF reporter robust z-score": 0.4}
{"Target gene": "DLL4 (delta like canonical Notch ligand 4)", "TNF reporter robust z-score": -0.3}
{"Target gene": "DLL4 (delta like canonical Notch ligand 4)", "TNF reporter robust z-score": 0.7}
{"Target gene": "KLHL27 (kelch like family member 27)", "TNF reporter robust z-score": -0.49}
{"Target gene": "KLHL27 (kelch like family member 27)", "TNF reporter robust z-score": -0.36}
{"Target gene": "KLHL27 (kelch like family member 27)", "TNF reporter robust z-score": -1.23}
{"Target gene": "KLHL27 (kelch like family member 27)", "TNF reporter robust z-score": -1.5}
{"Target gene": "HOGA1 (4-hydroxy-2-oxoglutarate aldolase 1)", "TNF reporter robust z-score": 0.39}
{"Target gene": "HOGA1 (4-hydroxy-2-oxoglutarate aldolase 1)", "TNF reporter robust z-score": 0.85}
{"Target gene": "HOGA1 (4-hydroxy-2-oxoglutarate aldolase 1)", "TNF reporter robust z-score": -0.14}
{"Target gene": "HOGA1 (4-hydroxy-2-oxoglutarate aldolase 1)", "TNF reporter robust z-score": 1.69}
{"Target gene": "HAND2 (heart and neural crest derivatives expressed 2)", "TNF reporter robust z-score": -0.43}
{"Target gene": "HAND2 (heart and neural crest derivatives expressed 2)", "TNF reporter robust z-score": 0.02}
{"Target gene": "HAND2 (heart and neural crest derivatives expressed 2)", "TNF reporter robust z-score": 0.31}
{"Target gene": "HAND2 (heart and neural crest derivatives expressed 2)", "TNF reporter robust z-score": -0.08}
{"Target gene": "HELZ (helicase with zinc finger)", "TNF reporter robust z-score": -0.23}
{"Target gene": "HELZ (helicase with zinc finger)", "TNF reporter robust z-score": 0.68}
{"Target gene": "HELZ (helicase with zinc finger)", "TNF reporter robust z-score": -0.3}
{"Target gene": "HELZ (helicase with zinc finger)", "TNF reporter robust z-score": 0.84}
{"Target gene": "FTSJ3 (FtsJ RNA 2'-O-methyltransferase 3)", "TNF reporter robust z-score": "2.81 (active)"}
{"Target gene": "FTSJ3 (FtsJ RNA 2'-O-methyltransferase 3)", "TNF reporter robust z-score": 0.7}
{"Target gene": "FTSJ3 (FtsJ RNA 2'-O-methyltransferase 3)", "TNF reporter robust z-score": 0.82}
{"Target gene": "FTSJ3 (FtsJ RNA 2'-O-methyltransferase 3)", "TNF reporter robust z-score": 0.64}
{"Target gene": "CDK10 (cyclin dependent kinase 10)", "TNF reporter robust z-score": 2.09}
{"Target gene": "CDK10 (cyclin dependent kinase 10)", "TNF reporter robust z-score": 1.97}
{"Target gene": "CDK10 (cyclin dependent kinase 10)", "TNF reporter robust z-score": 2.05}
{"Target gene": "CDK10 (cyclin dependent kinase 10)", "TNF reporter robust z-score": 1.34}
{"Target gene": "MSH5 (mutS homolog 5)", "TNF reporter robust z-score": 0.74}
{"Target gene": "MSH5 (mutS homolog 5)", "TNF reporter robust z-score": 0.16}
{"Target gene": "MSH5 (mutS homolog 5)", "TNF reporter robust z-score": 0.49}
{"Target gene": "MSH5 (mutS homolog 5)", "TNF reporter robust z-score": 1.09}
{"Target gene": "POU2F3 (POU class 2 homeobox 3)", "TNF reporter robust z-score": -0.08}
{"Target gene": "POU2F3 (POU class 2 homeobox 3)", "TNF reporter robust z-score": -0.1}
{"Target gene": "POU2F3 (POU class 2 homeobox 3)", "TNF reporter robust z-score": 0.54}
{"Target gene": "POU2F3 (POU class 2 homeobox 3)", "TNF reporter robust z-score": 0.43}
{"Target gene": "EWSR1 (EWS RNA binding protein 1)", "TNF reporter robust z-score": 0.08}
{"Target gene": "EWSR1 (EWS RNA binding protein 1)", "TNF reporter robust z-score": 0.66}
{"Target gene": "EWSR1 (EWS RNA binding protein 1)", "TNF reporter robust z-score": 0.09}
{"Target gene": "EWSR1 (EWS RNA binding protein 1)", "TNF reporter robust z-score": 1.44}
